Source: paper PMC6582314, “Ligands Exert Biased Activity to Regulate Sigma 1 Receptor Interactions With Cationic TRPA1, TRPV1, and TRPM8 Channels” (Frontiers in Pharmacology, 2019)
Results are given in words; binding and its absence hold for the method and conditions named. For part of these data: Where a sequence is shown, tags or fusion partners need not be part of it.

Columns and labels:
[1] = biological target: TRPA1 C-terminal cytosolic region (aa 961-1125), GST-tagged (mouse) (UniProt Q8BLA8); assay: pull-down; TRP sequence (100 nM) covalently attached to NHS-activated Sepharose 4FF; prey 200 nM; 200 µL 50 mM Tris-HCl pH 7.5, 0.2% CHAPS, with 3 mM CaCl2; 30 min at RT, three washes; Western blot; both purified
[2] = biological target: TRPA1 C-terminal cytosolic region (aa 961-1125), GST-tagged (mouse) (UniProt Q8BLA8); assay: pull-down; TRP sequence (100 nM) covalently attached to NHS-activated Sepharose 4FF; prey 200 nM; 200 µL 50 mM Tris-HCl pH 7.5, 0.2% CHAPS, without CaCl2; 30 min at RT, three washes; Western blot; both purified
[3] = biological target: TRPM8 N-terminal cytosolic region (aa 1-639), GST-tagged (mouse) (UniProt Q8R4D5); assay: as above

| Binder | binding [1] | binding [2] | binding [3] |
| --- | --- | --- | --- |
| histidine triad nucleotide-binding protein 1 (HINT1), murine, GST-free (natural protein, mouse, UniProt P70349 1-126, looked up, source: E. coli BL21 (KRX), purified (GStrap FF or HaloLink Resin, cleaved with ProTEV protease, ion exchange); not shown: GST, N-terminal, cleaved) MADEIAKAQVAQPGGDTIFGKIIRKEIPAKIIFEDDRCLAFHDISPQAPTHFLVIPKKHISQISVADDDDESLLGHLMIVGKKCAADLGLKRGYRMVVNEGADGGQSVYHIHLHVLGGRQMNWPPG | no binding (tested: 200 nM) | no binding (tested: 200 nM) | – |
| sigma 1 receptor (σ1R), full-length murine, GST-free (natural protein, mouse, UniProt O55242 1-223, looked up, sigma 1 receptor, mouse, GenBank AF004927, coding region of the full-length protein; 223 amino acids; also called type 1 sigma receptor; source: E. coli BL21 (KRX), purified (GStrap FF or HaloLink Resin, cleaved with ProTEV protease, ion exchange); not shown: GST, N-terminal, cleaved) MPWAAGRRWAWITLILTIIAVLIQAAWLWLGTQNFVFSREEIAQLARQYAGLDHELAFSRLIVELRRLHPGHVLPDEELQWVFVNAGGWMGAMCILHASLSEYVLLFGTALGSHGHSGRYWAEISDTIISGTFHQWKEGTTKSEVFYPGETVVHGPGEATALEWGPNTWMVEYGRGVIPSTLFFALADTFFSTQDYLTLFYTLRAYARGLRLELTTYLFGQDS | – | – | no binding (condition: in the absence of calcium (200 nM)) |
